Measured values: patent publication US20070166710A1, “Methods for inhibiting adipogenesis and for treating type 2 diabetes” (priority 2003, published 2007)
Results from cells or extracts need not show a direct contact. For some assays here: Negatives hold for the conditions tested. Where a protein sequence is shown, tags need not be part of it. For some assays here: For at least one entry, the source does not settle the construct or the ends of the probe.

Key:
Foxa-1 (Hnf-3alpha) = molecular target: T1, Foxa-1 (Hnf-3alpha) (UniProt P35582); assay: EMSA; settings: no supershift with anti-Foxa-1; Foxa-1 not detected in this tissue; protein in an extract; label: 32P
T1 sequence (looked up, limits assumed): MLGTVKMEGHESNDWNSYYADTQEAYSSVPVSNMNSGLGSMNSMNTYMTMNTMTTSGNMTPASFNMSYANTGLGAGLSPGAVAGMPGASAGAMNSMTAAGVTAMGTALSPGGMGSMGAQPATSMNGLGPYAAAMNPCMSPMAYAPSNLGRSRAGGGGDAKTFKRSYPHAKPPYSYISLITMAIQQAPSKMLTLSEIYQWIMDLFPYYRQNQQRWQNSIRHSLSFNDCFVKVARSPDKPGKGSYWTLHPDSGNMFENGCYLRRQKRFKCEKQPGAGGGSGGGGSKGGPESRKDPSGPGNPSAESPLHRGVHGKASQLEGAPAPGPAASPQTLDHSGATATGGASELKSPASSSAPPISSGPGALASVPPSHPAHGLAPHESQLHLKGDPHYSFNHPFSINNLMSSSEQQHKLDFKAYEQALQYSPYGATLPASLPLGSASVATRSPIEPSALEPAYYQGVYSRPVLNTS

[1] = molecular target: T2, Foxa-2 (Hnf-3beta), nuclear extract of ob/ob mouse fat (Mus musculus) (UniProt P35583); assay: EMSA; settings: protein in an extract; label: 32P
T2 sequence (looked up, limits assumed): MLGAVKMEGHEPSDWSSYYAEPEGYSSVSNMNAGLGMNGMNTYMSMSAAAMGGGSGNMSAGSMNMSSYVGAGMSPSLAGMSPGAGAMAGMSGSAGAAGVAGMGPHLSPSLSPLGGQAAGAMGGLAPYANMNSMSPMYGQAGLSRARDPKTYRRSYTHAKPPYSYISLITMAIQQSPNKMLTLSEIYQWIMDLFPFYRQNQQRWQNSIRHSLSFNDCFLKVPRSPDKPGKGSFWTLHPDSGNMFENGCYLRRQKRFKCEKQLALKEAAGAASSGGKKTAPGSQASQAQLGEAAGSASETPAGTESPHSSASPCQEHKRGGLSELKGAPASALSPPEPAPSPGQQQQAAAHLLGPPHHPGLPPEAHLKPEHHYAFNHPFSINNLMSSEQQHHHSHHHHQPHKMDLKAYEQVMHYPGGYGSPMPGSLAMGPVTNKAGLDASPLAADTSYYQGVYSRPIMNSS

| Sequence | binding result (Foxa-1 (Hnf-3alpha)) | binding result [1] |
| --- | --- | --- |
| CTTATTTGCATATTTCCAGT (double strand) [Lpl promoter Foxa site] | no binding | binds |
| GTGTGTAATTATGTGCTTAG (double strand) [Pref-1 promoter Foxa site] | no binding | binds |
| CAGGTTGCCTGTTTGTTTTC (double strand) [Ucp-2 promoter Foxa site] | no binding | – |
